PubChem BioAssay AID743121 – NCATS – 2013

- Assay: 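Partners whose loss is lethal together with topoisomerase I blockade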 (primary screen)
- Cell system: MDA-MB-231 cells, a human breast cancer line
- Knock-down reagent: single siRNA against human genes, 20 nM siRNA (0.8 pmol per well)
- Duration: 120 h (drug added 48 h after transfection, read 72 h later)
- Challenge: camptothecin 20 nM (about EC30) for 72 h; vehicle 0.1% DMSO in parallel plates
- Measurement: 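Cell viability by ATP luminescence (CellTiter-Glo) as % of non-targeting siRNA wells, and the log2 ratio of viability without drug over viability with camptothecin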
- Scale: log2 vehicle/camptothecin viability: higher = stronger sensitisation to camptothecin; viability with camptothecin and viability without drug: higher = more viable cells
- Rule for the call: 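Each gene scored by redundant siRNA activity (RSA) over its individual siRNA ratios; a gene is called active at p < 0.001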
The whole screen tested about 26,000 reagents; shown is a random part of them. Over the whole deposit, 167 (0.63%) were called active. 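Calls are per gene from RSA p-values that are not deposited; an individual active-marked siRNA can sensitise only weakly.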 Entries without a mark were called inactive. The numbers tell different reagents against one gene apart. Reagent sequences are not shown.

| target gene | reagent | log2 vehicle/camptothecin viability | viability with camptothecin (% of control) | viability without drug (% of control) |
| --- | --- | --- | --- | --- |
| TRIP10 (GeneID 9322) | 1 | -0.0742 | 60.9 | 57.9 |
| TRIP10 (GeneID 9322) | 2 | 0.824 | 20.4 | 36.1 |
| TRIP10 (GeneID 9322) | 3 | -0.294 | 65.9 | 53.7 |
| TRIP10 (GeneID 9322) | 4 | -0.356 | 101 | 79 |
| ADGRB3 (GeneID 577) | 1 | -0.24 | 86.1 | 72.9 |
| ADGRB3 (GeneID 577) | 2 | -0.438 | 79.8 | 58.9 |
| ADGRB3 (GeneID 577) | 3 | -0.453 | 59.6 | 43.5 |
| ADGRB3 (GeneID 577) | 4 | -0.402 | 107 | 81.2 |
| MMP9 (GeneID 4318) | 1 | -0.66 (active) | 74.6 | 47.2 |
| MMP9 (GeneID 4318) | 2 | 1.3 (active) | 29.7 | 73 |
| MMP9 (GeneID 4318) | 3 | 0.953 (active) | 35.5 | 68.8 |
| MMP9 (GeneID 4318) | 4 | 0.896 (active) | 15 | 27.9 |
| C7 (GeneID 730) | 1 | -0.304 | 54.2 | 43.9 |
| C7 (GeneID 730) | 2 | -0.261 | 75.8 | 63.2 |
| C7 (GeneID 730) | 3 | 0.443 | 61.2 | 83.1 |
| C7 (GeneID 730) | 4 | 0.132 | 39.2 | 43 |
| NEIL3 (GeneID 55247) | 1 | 0.138 | 86.9 | 95.6 |
| NEIL3 (GeneID 55247) | 2 | -0.086 | 48.4 | 45.6 |
| NEIL3 (GeneID 55247) | 3 | 0.175 | 78.4 | 88.5 |
| NEIL3 (GeneID 55247) | 4 | -0.425 | 90.4 | 67.3 |
| PDHA1 (GeneID 5160) | 1 | -0.00394 | 61.9 | 61.8 |
| PDHA1 (GeneID 5160) | 2 | -0.0442 | 99.5 | 96.5 |
| PDHA1 (GeneID 5160) | 3 | -0.0672 | 54.7 | 52.2 |
| PDHA1 (GeneID 5160) | 4 | -0.253 | 67.8 | 56.9 |
| BIRC3 (GeneID 330) | 1 | 0.313 | 85.7 | 107 |
| BIRC3 (GeneID 330) | 2 | 0.402 | 70.6 | 93.3 |
| BIRC3 (GeneID 330) | 3 | -0.0374 | 95.1 | 92.6 |

Targets above whose target name starts with A or a (4):
| target gene | reagent | log2 vehicle/camptothecin viability | viability with camptothecin (% of control) | viability without drug (% of control) |
| --- | --- | --- | --- | --- |
| ADGRB3 (GeneID 577) | 1 | -0.24 | 86.1 | 72.9 |
| ADGRB3 (GeneID 577) | 2 | -0.438 | 79.8 | 58.9 |
| ADGRB3 (GeneID 577) | 3 | -0.453 | 59.6 | 43.5 |
| ADGRB3 (GeneID 577) | 4 | -0.402 | 107 | 81.2 |

Continued.
| target gene | reagent | log2 vehicle/camptothecin viability | viability with camptothecin (% of control) | viability without drug (% of control) |
| --- | --- | --- | --- | --- |
| LMAN2L (GeneID 81562) | 1 | -0.18 | 98.4 | 86.9 |
| LMAN2L (GeneID 81562) | 2 | -0.0559 | 91.9 | 88.4 |
| LMAN2L (GeneID 81562) | 3 | 0.0248 | 47 | 47.8 |
| LMAN2L (GeneID 81562) | 4 | -0.155 | 112 | 101 |
| ZNF197 (GeneID 10168) | 1 | -0.0104 | 57 | 56.6 |
| ZNF197 (GeneID 10168) | 2 | -0.232 | 73.6 | 62.7 |
| ZNF197 (GeneID 10168) | 3 | -0.18 | 95.1 | 83.9 |
| ZNF197 (GeneID 10168) | 4 | -0.337 | 69 | 54.7 |
| XDH (GeneID 7498) | 1 | -0.322 | 76 | 60.8 |
| XDH (GeneID 7498) | 2 | 0.0377 | 82.1 | 84.3 |
| XDH (GeneID 7498) | 3 | 0.225 | 54.1 | 63.3 |
| XDH (GeneID 7498) | 4 | -0.162 | 62 | 55.4 |
| SLC7A9 (GeneID 11136) | 1 | -0.0939 | 114 | 106 |
| SLC7A9 (GeneID 11136) | 2 | 0.0938 | 77.9 | 83.2 |
| SLC7A9 (GeneID 11136) | 3 | -0.1 | 99.6 | 92.9 |
| SLC7A9 (GeneID 11136) | 4 | -0.22 | 129 | 110 |
| OR56B1 (GeneID 387748) | 1 | 0.874 | 23.7 | 43.5 |
| OR56B1 (GeneID 387748) | 2 | -0.531 | 101 | 69.9 |
| OR56B1 (GeneID 387748) | 3 | 0.0189 | 73.4 | 74.4 |
| OR56B1 (GeneID 387748) | 4 | -0.384 | 62.6 | 48 |
